Measured values as given in patent publication US20210177847A1, “Compounds for treatment of diseases related to DUX4 expression” (Facio Intellectual Property B.V., priority 2017, published 2021).

System: primary FSHD myotubes
Assay: Myotube fusion / differentiation readout (fusion index) in primary FSHD myotubes, 15 h or 72 h treatment
Format: cell-based, human
From the text: A quantitative assay readout was developed based on script-based image analysis. […] To analyse the images, an automated script was developed, enabling the detection of nuclei, myotube borders and DUX4 signals, with the script also detecting artefacts to reduce false positive signals. The script enabled multiple validated readouts including the number of DUX4 positive nuclei and nuclei clusters, the fusion index, myotube area, myotube width and myotube skeleton length (see FIG. 2). Additionally, the total nuclei count was included as a measure of cell loss or compound toxicity.
Compounds are administered either 15 h before fixation, resembling the original screening protocol, or 72 h before fixation (grey arrow). In the latter case, compounds are present during the whole differentiation process.

COc1ccc(CC(C)NCC(O)c2ccc(O)c(NC=O)c2)cc1 (stereo not shown) [formoterol]
effect on fusion process and differentiation of myoblasts into myotubes: no myotube formation can be observed
